Laboratory results published in patent publication US8513162B2, “Halogen-containing organosulfur compound and use thereof” (Sumitomo Chemical Company, Limited, priority 2008, dated 2013).
Some entries share one result that the patent states for a list of compounds.

Columns and labels:
Assay type in all cases: in vivo
Nilaparvata lugens [1] = experiment: Test Example 2: rice plants absorb test solution from the bottom of the cup, Nilaparvata lugens larvae released; conditions: 55.6 ppm active ingredient, 45 ml absorbed from the bottom of the cup; larvae released 6 days after treatment; 30 first-instar larvae; counted after 6 days at 25° C.
Nilaparvata lugens [2] = experiment: Test Example 1: test solution sprayed on rice plants, Nilaparvata lugens larvae released; conditions: 500 ppm active ingredient, 20 ml/cup sprayed on rice plants; 30 first-instar larvae released; counted after 6 days at 25° C.
Aphis gossypii = experiment: Test Example 3: test solution sprayed on cucumber carrying Aphis gossypii; conditions: 500 ppm active ingredient, 20 ml/cup sprayed; about 20 individuals placed 1 day before; counted after 6 days

Compound | number of the parasitic pests (Nilaparvata lugens parasitic on the rice plants) (Nilaparvata lugens [1]) | number of the parasitic pests (Nilaparvata lugens parasitic on the rice plants) (Nilaparvata lugens [2]) | number of the parasitic pests (Aphis gossypii on cucumber) (Aphis gossypii)
N#CC(CCC(F)(F)C(F)(F)F)S(=O)(=O)CC1CCCCO1 (single isomer, unassigned) [present compound (22), 5,5,6,6,6-pentafluoro-2-(tetrahydropyran-2-ylmethanesulfonyl)hexanenitrile] | ≤ 3 | ≤ 3 | 
C#CCC1CCC(CSCCC(F)(F)F)O1 (single isomer, unassigned) [present compound (23), 2-(prop-2-ynyl)-5-(3,3,3-trifluoropropylthiomethyl)tetrahydrofuran] | ≤ 3 | ≤ 3 | ≤ 3
C#CCC1CCC(CS(=O)(=O)CCC(F)(F)F)O1 (single isomer, unassigned) [present compound (24), 2-(prop-2-ynyl)-5-(3,3,3-trifluoropropanesulfonylmethyl)tetrahydrofuran] | ≤ 3 | ≤ 3 | 
CCOC(=O)N1CCC(C(C#N)S(=O)(=O)CCC(F)(F)F)CC1 (stereo not drawn) [present compound (1), 2-[N-(ethoxycarbonyl)piperidin-4-yl]-2-(3,3,3-trifluoropropylsulfonyl)acetonitrile] | ≤ 3 |  | 
N#CC(C1CCSCC1)S(=O)(=O)CCC(F)(F)F (stereo not drawn) [present compound (4), 2-(tetrahydrothiopyran-4-yl)-2-(3,3,3-trifluoropropylsulfonyl)acetonitrile] | ≤ 3 | ≤ 3 | ≤ 3
N#CC(C1CC[S+]([O-])CC1)S(=O)(=O)CCC(F)(F)F (stereo not drawn) [present compound (5), 2-(1-oxo-1λ^4-tetrahydrothiopyran-4-yl)-2-(3,3,3-trifluoropropylsulfonyl)acetonitrile] | ≤ 3 | ≤ 3 | ≤ 3
N#CC(C1CCS(=O)(=O)CC1)S(=O)(=O)CCC(F)(F)F (stereo not drawn) [present compound (6), 2-(1,1-dioxo-1λ^4-tetrahydrothiopyran-4-yl)-2-(3,3,3-trifluoropropylsulfonyl)acetonitrile] | ≤ 3 | ≤ 3 | ≤ 3
N#CC(C1CCSC1)S(=O)(=O)CCC(F)(F)F (stereo not drawn) [present compound (7), 2-(tetrahydrothiophen-3-yl)-2-(3,3,3-trifluoropropylsulfonyl)acetonitrile] | ≤ 3 | ≤ 3 | ≤ 3
N#CC(C1CC[S+]([O-])C1)S(=O)(=O)CCC(F)(F)F (stereo not drawn) [present compound (8), 2-(1-oxo-1λ^4-tetrahydrothiophen-3-yl)-2-(3,3,3-trifluoropropylsulfonyl)acetonitrile] | ≤ 3 | ≤ 3 | ≤ 3
N#CC(CC1CCCO1)S(=O)(=O)CCC(F)(F)F (stereo not drawn) [present compound (10), 3-(2-tetrahydrofuran-2-yl)-2-(3,3,3-trifluoropropylsulfonyl)propionitrile] | ≤ 3 | ≤ 3 | 
N#CC(CC1CCOC1)S(=O)(=O)CCC(F)(F)F (stereo not drawn) [present compound (11), 3-(tetrahydrofuran-3-yl)-2-(3,3,3-trifluoropropylsulfonyl)propionitrile] | ≤ 3 | ≤ 3 | ≤ 3
N#CC(CC1CCCCO1)S(=O)(=O)CCC(F)(F)F (stereo not drawn) [present compound (12), 3-(2-tetrahydropyran-2-yl)-2-(3,3,3-trifluoropropylsulfonyl)propionitrile] | ≤ 3 | ≤ 3 | 
COC(=O)N1CCC(C(C#N)S(=O)(=O)CCC(F)(F)C(F)(F)F)CC1 (stereo not drawn) [present compound (15), 2-[N-(methoxycarbonyl)piperidin-4-yl]-2-(3,3,4,4,4-pentafluorobutylsulfonyl)acetonitrile] | ≤ 3 | ≤ 3 | ≤ 3
N#CC(C1CCSCC1)S(=O)(=O)CCC(F)(F)C(F)(F)F (stereo not drawn) [present compound (16), 2-(tetrahydrothiopyran-4-yl)-2-(3,3,4,4,4-pentafluorobutylsulfonyl)acetonitrile] | ≤ 3 | ≤ 3 | ≤ 3
N#CC(CCC(F)(F)F)S(=O)(=O)CC1CCCO1 (stereo not drawn) [present compound (17), 5,5,5-trifluoro-2-(tetrahydrofuran-2-ylmethanesulfonyl)pentanenitrile] | ≤ 3 | ≤ 3 | 
N#CC(CCC(F)(F)C(F)(F)F)S(=O)(=O)CC1CCCO1 (stereo not drawn) [present compound (18), 5,5,6,6,6-pentafluoro-2-(tetrahydrofuran-2-ylmethanesulfonyl)hexanenitrile] | ≤ 3 | ≤ 3 | ≤ 3
N#CC(CCCC(F)(F)C(F)(F)F)S(=O)(=O)CC1CCCO1 (stereo not drawn) [present compound (19), 6,6,7,7,7-pentafluoro-2-(tetrahydrofuran-2-ylmethanesulfonyl)heptanenitrile] | ≤ 3 | ≤ 3 | 
N#CC(CCC(F)(F)C(F)(F)F)S(=O)(=O)CCC1OCCO1 (stereo not drawn) [present compound (21), 5,5,6,6,6,-pentafluoro-2-[2-(1,3-dioxolan-2-yl)ethanesulfonyl]pentanenitrile] | ≤ 3 | ≤ 3 | 
